Data taken from patent US20050085528A1 (priority 2003, published 2005).
For at least one compound, name, drawing or mass did not settle the structure.

System: HCV replicon (Huh 5-2 [I389luc-ubi-neo-NS3-3′/5.1])
Assay type: cell-based
Conditions: luciferase, 72 hours statin treatment

CCC(C)(C)C(=O)O[C@H]1C[C@@H](C)C=C2C=C[C@H](C)[C@H](CC[C@@H]3C[C@@H](O)CC(=O)O3)[C@H]21 [Simvastatin]
IC50: 6.5 µM
